In article PMC9169363:
These are yes or no findings as the source states them, for the method shown. Some entries that bind do so weakly or less than the wild type.

Protein sequences, listed by entry. Tags and fused reporters are not part of them. Lines headed by an entry give the natural chain unless they say otherwise; changes in a name come on top.
UniProt P06756: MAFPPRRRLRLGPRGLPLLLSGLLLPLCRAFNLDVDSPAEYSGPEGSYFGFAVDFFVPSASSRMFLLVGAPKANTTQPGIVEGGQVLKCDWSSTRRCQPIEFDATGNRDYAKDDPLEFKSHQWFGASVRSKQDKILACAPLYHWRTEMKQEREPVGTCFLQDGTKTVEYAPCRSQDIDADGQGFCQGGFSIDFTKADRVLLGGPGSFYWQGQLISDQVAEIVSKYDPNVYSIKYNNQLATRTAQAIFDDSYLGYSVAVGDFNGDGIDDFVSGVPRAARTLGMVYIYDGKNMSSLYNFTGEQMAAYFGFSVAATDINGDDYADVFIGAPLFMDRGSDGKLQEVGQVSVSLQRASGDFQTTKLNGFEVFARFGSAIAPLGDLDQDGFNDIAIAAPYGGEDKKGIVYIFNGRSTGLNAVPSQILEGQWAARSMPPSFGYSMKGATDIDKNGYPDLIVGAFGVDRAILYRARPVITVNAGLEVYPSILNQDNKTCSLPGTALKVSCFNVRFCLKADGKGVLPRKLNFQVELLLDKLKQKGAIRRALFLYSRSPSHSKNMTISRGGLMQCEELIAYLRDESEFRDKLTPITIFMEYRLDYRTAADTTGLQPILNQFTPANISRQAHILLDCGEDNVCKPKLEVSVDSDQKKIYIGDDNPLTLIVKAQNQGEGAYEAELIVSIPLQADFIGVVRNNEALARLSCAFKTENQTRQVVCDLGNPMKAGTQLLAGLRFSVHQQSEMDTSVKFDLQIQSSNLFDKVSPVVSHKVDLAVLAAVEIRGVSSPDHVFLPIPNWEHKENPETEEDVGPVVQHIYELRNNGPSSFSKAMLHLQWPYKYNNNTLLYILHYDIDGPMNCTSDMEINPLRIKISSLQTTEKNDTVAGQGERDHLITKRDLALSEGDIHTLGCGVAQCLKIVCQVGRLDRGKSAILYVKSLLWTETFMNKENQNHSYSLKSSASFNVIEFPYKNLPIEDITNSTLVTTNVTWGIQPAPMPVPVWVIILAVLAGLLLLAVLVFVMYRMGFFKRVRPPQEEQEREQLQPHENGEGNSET
UniProt P05106: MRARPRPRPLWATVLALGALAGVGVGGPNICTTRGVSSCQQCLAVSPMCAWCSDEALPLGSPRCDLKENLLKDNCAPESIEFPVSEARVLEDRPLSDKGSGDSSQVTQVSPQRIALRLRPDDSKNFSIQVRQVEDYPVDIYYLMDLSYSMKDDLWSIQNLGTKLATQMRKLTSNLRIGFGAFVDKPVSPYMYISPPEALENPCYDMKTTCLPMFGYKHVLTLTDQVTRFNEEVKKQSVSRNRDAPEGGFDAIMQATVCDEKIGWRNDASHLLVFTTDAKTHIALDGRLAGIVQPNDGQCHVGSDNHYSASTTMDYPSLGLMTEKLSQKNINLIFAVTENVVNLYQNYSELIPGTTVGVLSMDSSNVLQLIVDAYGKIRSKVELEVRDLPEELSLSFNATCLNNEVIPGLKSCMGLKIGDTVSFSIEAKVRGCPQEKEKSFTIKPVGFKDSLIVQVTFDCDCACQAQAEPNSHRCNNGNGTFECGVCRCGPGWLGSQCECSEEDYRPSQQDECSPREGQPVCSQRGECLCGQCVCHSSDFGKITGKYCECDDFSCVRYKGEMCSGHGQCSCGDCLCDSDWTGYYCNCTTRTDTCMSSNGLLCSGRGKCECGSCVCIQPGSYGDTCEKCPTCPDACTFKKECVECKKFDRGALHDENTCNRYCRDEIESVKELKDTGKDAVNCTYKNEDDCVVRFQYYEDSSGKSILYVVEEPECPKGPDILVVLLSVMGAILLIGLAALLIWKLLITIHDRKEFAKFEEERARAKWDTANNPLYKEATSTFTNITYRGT

Biological target: integrin αvβ3 (human (endogenous in HUVECs)) (UniProt P06756+P05106)
Assay: cellular uptake of fluorescent nanoparticles, confocal microscopy; HUVECs activated with 500 ng/mL LPS for 24 h; with or without 2 h pre-incubation with 5 μM cilengitide or 1 μg/mL c(RGDfC) peptide; then 50 μg/mL DIR@T/R NPs for 2 h, washed with PBS, fixed; DIR fluorescence by CLSM; only the binder purified

Question: How did the binding turn out when RGDFC (cyclic peptide, printed as c(RGDfC)) [c(RGDfC) peptide, free] was run?
Answer: Its binding is “binds”.
